Results: PubChem BioAssay AID1347423 (Functional Genomics Laboratory (NCATS/FGL), 2020)
Among all 52,000 sequences or so, about 210 (0.4%) were called active.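 Rule for the calls: active = gene whose silencing raises cell survival under the drug, median off-target-corrected z-score across its silencing RNAs 2 or more; inactive = the rest.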 The list shows a part of the results.

Experiment: Resistance to Poly (ADP-Ribose) Polymerase inhibitor: Gene Identification via Genome-wide siRNA Screen
Settings: mouse BRCA2 R2336H ES cells, olaparib, CellTiter-Glo viability; hits give high values
Outline: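 Mouse BRCA2 R2336H ES cells were reverse-transfected with siRNA (20 nM final), treated at 48 h with 500 nM olaparib, and read by CellTiter-Glo after 72 h. Scores: MAD-based z per siRNA, median per gene, seed off-target correction.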
With GGAGCGAGGAAUCAAUGUUTT against Prss8 the z-score was inactive: -1.58.
For “UAAUAUUGUCAGCUGGCUUTT against D830030K20Rik”, the z-score was inactive: -0.184.
For CCGGCAAUUGCCUCAUUAUTT against Olfr1145, the z-score was inactive: -1.15.
In the case of GGAUGCCCAUCGUUAUGGUTT against AV340375, the z-score is reported as inactive: -1.16.
With GGAAAAGCAUCAAUUGAUGTT against Abca8b the z-score was inactive: -0.622.
In the case of GGGAAUAUUUUCAAGUUGCTT against Tmem14a, the z-score is reported as inactive: 0.342.
In the case of GCAUUAAGCACGAGAAAAATT against Slc18a2, the z-score is reported as inactive: -0.824.
In the case of GCAAAACUUGGAACGAUUUTT against Ddx1, the z-score is reported as inactive: 0.88.
For “GGAGAGGGAUAAGUUCUACTT against 9030205A07”, the z-score was inactive: -0.384.
In the case of GGUACUAAAGUGUGAUGUGTT against Nnmt, the z-score is reported as inactive: 0.575.
With “GGAAAAAUCAAAAGUGUUGTT against 1500001M20Rik” the z-score was inactive: 1.35.
In the case of GCUGAACUUAUCAACCAGATT against Btbd14b, the z-score is reported as inactive: -0.647.
In the case of GGACGAUGGAAAGCUCUAUTT against Olfr1229, the z-score is reported as inactive: 0.0356.
For “GGCAGCUGUAGAGGUGUUCTT against 1110020L19Rik”, the z-score was inactive: -0.564.
In the case of GGAUGUGGACACCUUUGCATT against Pxmp2, the z-score is reported as inactive: 0.482.
For GCAUUACUGAUUCUUUCUUTT against V1rh4, the z-score was inactive: -0.188.
For GGAAUUCGAUGCAUUUGUATT against Il18rap, the z-score was inactive: 1.38.
In the case of GGUGAUCUCUUUAUUCUACTT against Olfr472, the z-score is reported as inactive: -0.255.
In the case of GGAAGAGGUGAAAAUUACCTT against Plg, the z-score is reported as inactive: 0.761.
In the case of GCCACAAUGUCCAAAAUUATT against Rab6, the z-score is reported as inactive: 2.52.
For GGUAGCUAGUAUCCAAUAATT against Psen1, the z-score was inactive: -0.916.
With GGUGGAGGGAAUGAACAUCTT against Slc1a5 the z-score was inactive: 2.55.
In the case of GGGCAACUUGGAAUAAAGATT against Dsg3, the z-score is reported as inactive: 0.725.
For “GCCCGCCUAUUUGAAAGCATT against 1110034O07Rik”, the z-score was inactive: 0.623.
In the case of GGAAAUAGGCAAGUUGUUGTT against Luc7l2, the z-score is reported as inactive: 0.529.
With “GGAUGAGGUGGAAAAAAUGTT against 1700029H14Rik” the z-score was inactive: -2.16.
With “CCCUGGUAUUUCUGUUAUATT against 4930471M23Rik” the z-score was inactive: -0.361.
In the case of CGGACAGAUACAAUAGCUATT against BC057627, the z-score is reported as active: 3.74.
In the case of CCUGAAAUGCUAAGACUACTT against LOC380907, the z-score is reported as inactive: -0.607.
For GGGAAUGGAUGUUAUGAGUTT against Oas1a, the z-score was inactive: -0.498.
For GAUUCCUUUUUUGGAGGCGTT against Olfr45, the z-score was inactive: 0.725.
In the case of “GGAAGCAGAUGCUAUUUAUTT against 2610031L17Rik”, the z-score is reported as inactive: -2.15.
For “GAACUGGGCCUAGAACUUGTT against 0610012D14Rik”, the z-score was inactive: -1.57.
In the case of GGUUGUUUUGGAAUUGAUATT against Smu1, the z-score is reported as inactive: -3.31.
For GGCCCAGGAGAUUUUCCAATT against Proc, the z-score was inactive: -0.188.
In the case of CGUCUACUUCGUACAAAUGTT against Gm1128, the z-score is reported as inactive: 0.585.
For GGUUUCGUCUGUUCCUUAATT against Dom3z, the z-score was inactive: -0.887.
With GGUGCGAGUGGAAUUCAUGTT against Rps28 the z-score was inactive: -3.22.
In the case of GGUGUUAGAAAGAGACCAGTT against Vamp3, the z-score is reported as inactive: 1.81.
With GGGACGAUGACAAGAACAATT against Mcfd2 the z-score was inactive: -0.944.
With GGUACACUGCUUAUUGGUATT against Olfr857 the z-score was inactive: -0.206.
In the case of GCUGAGUUAUCGUUUAUGATT against Cldn18, the z-score is reported as inactive: 0.284.
In the case of GCAUUGGUGUUUAGUUGGUTT against Gdf2, the z-score is reported as inactive: -0.0547.
With GGGCCCGAUGAAGCAAAAATT against Hnrpr the z-score was inactive: 2.05.
With “GCAUUAGGUAUUACUACCUTT against 9230118O15Rik” the z-score was inactive: 0.35.
For GGGUUUUGUCUUAAUGAAUTT against Scn10a, the z-score was inactive: 0.71.
For “GGGAAUCCAUUAUUGCUGATT against 4933400C05Rik”, the z-score was inactive: 0.34.
With GCAUGACAAAUCUAAAAAGTT against Pcdh7 the z-score was inactive: 1.17.
With GGUAAUAGGCAAAGAUUUATT against Hdac9 the z-score was inactive: -0.538.
With GGAGGAGAACACCUUGAAUTT against Trpc1 the z-score was inactive: -0.179.
With GCUGUUAUUUAGGUUUCAGTT against Cxcl2 the z-score was inactive: 0.217.
For CGAUAUGUGUUUGUAAUGGTT against Atp6v1d, the z-score was inactive: -0.78.
In the case of CCCUCACAAUGAUCGAUUUTT against Tkt, the z-score is reported as inactive: 0.55.
In the case of GGUGAUACCAUCACUUUGATT against Mark2, the z-score is reported as inactive: -1.96.
With GGAACAGAUUCUUAACUCCTT against BC050196 the z-score was inactive: -0.0368.
For GGCUCCAAGGGAUUUGGUUTT against A2bp1, the z-score was inactive: 0.523.
In the case of GCCACUCCAUAUGCCAUAGTT against Brsk2, the z-score is reported as inactive: -0.408.
In the case of GGACACCAAAAAGAAAGAATT against Ehd3, the z-score is reported as inactive: -1.22.
In the case of “GGUAUUGAGUGAUAACUACTT against B230308G19Rik”, the z-score is reported as inactive: 0.508.
For CGAAAUGCCUGAAAACUUCTT against Palmd, the z-score was inactive: -0.239.
For “GGGCUAGCUAGCAAAAGCATT against 1110020C13Rik”, the z-score was inactive: -0.325.
In the case of GGAUAUUCAUAGUAACACATT against C87860, the z-score is reported as inactive: -0.425.
For GGUUUUAGGAGAACUGUCATT against Peo1, the z-score was inactive: -1.36.
In the case of CCGUUGUAUAUACCAGUAUTT against Syt1, the z-score is reported as inactive: 1.35.
For “GGAUGAAGUCUUUCACUUUTT against 1810011O16Rik”, the z-score was inactive: -1.24.
For GCACAACUCUGUUCUGUUGTT against Olfr491, the z-score was inactive: 0.892.
